The values below come from patent publication US20200299396A1.

The chains behind the UniProt entries cited, without tags or fusion partners. Where a name states a change or a piece, a line headed by the entry shows the natural chain unless it says otherwise.
UniProt P19438: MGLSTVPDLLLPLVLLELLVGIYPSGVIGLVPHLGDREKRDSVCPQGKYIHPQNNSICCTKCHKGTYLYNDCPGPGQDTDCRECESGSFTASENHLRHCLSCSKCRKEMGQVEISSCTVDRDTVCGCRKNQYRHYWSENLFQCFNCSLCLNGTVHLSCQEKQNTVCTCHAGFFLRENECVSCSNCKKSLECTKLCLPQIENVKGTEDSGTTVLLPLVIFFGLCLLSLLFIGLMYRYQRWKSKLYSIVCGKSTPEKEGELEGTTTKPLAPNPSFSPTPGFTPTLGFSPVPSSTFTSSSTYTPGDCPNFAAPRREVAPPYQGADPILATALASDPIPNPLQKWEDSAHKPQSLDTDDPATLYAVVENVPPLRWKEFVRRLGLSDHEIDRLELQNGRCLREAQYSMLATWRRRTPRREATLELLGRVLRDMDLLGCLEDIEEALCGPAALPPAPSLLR

Results are given in words; binding and its absence hold for the method and conditions named. Some binding calls cover weakened binding; strength is not graded here.

The target in assay [1] is Recombinant human TNFR1-Fc fusion protein (human) (UniProt P19438). The assay can be described thus: ELISA on coated human TNFR1-Fc, n=3. A general note: ELISA stands for enzyme-linked immunosorbent assay.
Assay [2] has the same target. The assay can be described thus: ELISA under equilibrium conditions, TNFR1-Fc coated; control.

B1: Fab 13.7 (Fab, V domains shown)
VH: HVQLVQSGAEVKKPGSSVKVSCKASGYTFTDFYINWVRQAPGQGLEWIGEIVPSQGEAKYNDKFKARVTITADKSTSTAYMELSSLRSEDTAVYYCARWDFLDYWGQGTTVTVSS
VL: DVQMTQSPSSLSASVGDRVTITCRSSQSLLHSNGNTYLHWYQQKPGKAPKLLIYTVSNRFSGVPSRFSGSGSGTDFTLTISSLQPEDFATYYCSQSTHVPYTFGGGTKVEIKR
Consider B1, for which the binding result in assay [1] and in assay [2] was “binds” in each case.
